This is an account of results in the supplement of paper PMC12595434, “Development of retinoid nuclear receptor pathway antagonists through targeting aldehyde dehydrogenase 1A3” (iScience, 2025).

Chains of the proteins cited; added tags and fusions are not shown. Lines headed by an entry give the natural chain unless they say otherwise; changes in a name come on top.
UniProt Q7KZF4: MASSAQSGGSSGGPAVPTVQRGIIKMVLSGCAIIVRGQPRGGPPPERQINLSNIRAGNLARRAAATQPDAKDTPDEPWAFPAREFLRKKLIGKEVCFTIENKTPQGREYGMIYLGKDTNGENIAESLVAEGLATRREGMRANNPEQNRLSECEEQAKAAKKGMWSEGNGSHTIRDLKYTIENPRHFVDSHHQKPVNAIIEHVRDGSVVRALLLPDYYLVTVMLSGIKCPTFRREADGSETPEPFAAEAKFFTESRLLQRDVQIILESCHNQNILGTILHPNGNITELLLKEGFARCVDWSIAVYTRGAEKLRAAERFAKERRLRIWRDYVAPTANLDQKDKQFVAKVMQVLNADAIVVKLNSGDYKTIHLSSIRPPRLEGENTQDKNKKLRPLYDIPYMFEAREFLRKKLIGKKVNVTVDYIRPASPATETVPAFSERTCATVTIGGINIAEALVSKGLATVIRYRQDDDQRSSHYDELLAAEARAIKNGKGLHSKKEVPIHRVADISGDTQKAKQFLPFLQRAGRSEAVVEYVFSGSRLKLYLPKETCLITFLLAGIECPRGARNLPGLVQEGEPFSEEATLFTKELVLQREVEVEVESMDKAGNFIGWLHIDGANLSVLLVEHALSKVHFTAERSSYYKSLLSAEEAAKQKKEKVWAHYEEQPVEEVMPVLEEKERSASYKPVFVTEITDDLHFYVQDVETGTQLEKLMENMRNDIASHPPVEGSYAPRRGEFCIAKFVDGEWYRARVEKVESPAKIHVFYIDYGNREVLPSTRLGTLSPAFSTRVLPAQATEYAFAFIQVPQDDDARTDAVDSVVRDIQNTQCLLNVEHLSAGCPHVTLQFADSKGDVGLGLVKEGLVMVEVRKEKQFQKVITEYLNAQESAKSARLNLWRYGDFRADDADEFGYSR
UniProt Q7L3B6: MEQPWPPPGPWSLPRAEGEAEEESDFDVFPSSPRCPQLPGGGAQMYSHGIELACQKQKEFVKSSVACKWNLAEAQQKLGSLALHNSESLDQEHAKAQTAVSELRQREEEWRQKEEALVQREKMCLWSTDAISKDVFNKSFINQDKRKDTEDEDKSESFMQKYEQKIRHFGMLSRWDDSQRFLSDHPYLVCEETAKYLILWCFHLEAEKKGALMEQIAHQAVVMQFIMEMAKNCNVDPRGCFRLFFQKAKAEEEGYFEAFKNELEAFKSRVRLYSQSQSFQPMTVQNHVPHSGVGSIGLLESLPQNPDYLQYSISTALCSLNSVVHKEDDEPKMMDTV
UniProt Q86TP1: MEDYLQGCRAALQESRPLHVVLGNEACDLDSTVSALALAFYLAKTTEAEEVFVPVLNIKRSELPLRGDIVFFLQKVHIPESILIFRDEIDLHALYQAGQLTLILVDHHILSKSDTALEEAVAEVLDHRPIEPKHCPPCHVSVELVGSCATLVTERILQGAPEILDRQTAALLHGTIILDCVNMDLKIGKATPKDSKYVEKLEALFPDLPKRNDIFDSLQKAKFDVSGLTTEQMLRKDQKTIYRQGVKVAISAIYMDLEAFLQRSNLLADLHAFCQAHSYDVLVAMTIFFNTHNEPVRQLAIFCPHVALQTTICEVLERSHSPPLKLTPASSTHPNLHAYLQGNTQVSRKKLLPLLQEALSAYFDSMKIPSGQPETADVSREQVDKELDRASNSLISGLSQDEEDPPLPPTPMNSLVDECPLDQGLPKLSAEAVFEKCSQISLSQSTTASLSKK
UniProt Q7Z4H7: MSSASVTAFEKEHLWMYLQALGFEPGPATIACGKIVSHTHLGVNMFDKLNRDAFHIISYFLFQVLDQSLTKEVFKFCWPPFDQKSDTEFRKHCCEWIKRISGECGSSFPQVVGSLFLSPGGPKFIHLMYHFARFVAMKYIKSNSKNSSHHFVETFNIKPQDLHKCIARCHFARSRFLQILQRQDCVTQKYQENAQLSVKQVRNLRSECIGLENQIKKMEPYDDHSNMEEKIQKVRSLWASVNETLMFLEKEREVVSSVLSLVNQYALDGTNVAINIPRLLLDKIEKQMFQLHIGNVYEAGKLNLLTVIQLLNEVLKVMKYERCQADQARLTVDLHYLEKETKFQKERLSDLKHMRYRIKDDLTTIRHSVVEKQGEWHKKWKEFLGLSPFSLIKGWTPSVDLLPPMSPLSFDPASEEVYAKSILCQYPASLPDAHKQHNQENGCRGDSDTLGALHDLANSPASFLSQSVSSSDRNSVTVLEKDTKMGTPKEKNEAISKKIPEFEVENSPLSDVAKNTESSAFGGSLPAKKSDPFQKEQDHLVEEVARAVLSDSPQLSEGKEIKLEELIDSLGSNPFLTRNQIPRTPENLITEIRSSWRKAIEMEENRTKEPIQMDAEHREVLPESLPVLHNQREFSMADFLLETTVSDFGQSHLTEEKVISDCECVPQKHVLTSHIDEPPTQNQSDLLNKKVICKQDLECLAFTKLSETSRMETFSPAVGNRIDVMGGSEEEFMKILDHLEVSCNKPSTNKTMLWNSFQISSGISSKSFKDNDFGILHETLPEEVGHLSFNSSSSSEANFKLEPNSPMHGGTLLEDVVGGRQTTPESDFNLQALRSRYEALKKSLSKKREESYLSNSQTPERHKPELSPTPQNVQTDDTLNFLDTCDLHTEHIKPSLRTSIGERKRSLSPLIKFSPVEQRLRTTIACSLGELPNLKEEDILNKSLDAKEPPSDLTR
UniProt Q7L2J0: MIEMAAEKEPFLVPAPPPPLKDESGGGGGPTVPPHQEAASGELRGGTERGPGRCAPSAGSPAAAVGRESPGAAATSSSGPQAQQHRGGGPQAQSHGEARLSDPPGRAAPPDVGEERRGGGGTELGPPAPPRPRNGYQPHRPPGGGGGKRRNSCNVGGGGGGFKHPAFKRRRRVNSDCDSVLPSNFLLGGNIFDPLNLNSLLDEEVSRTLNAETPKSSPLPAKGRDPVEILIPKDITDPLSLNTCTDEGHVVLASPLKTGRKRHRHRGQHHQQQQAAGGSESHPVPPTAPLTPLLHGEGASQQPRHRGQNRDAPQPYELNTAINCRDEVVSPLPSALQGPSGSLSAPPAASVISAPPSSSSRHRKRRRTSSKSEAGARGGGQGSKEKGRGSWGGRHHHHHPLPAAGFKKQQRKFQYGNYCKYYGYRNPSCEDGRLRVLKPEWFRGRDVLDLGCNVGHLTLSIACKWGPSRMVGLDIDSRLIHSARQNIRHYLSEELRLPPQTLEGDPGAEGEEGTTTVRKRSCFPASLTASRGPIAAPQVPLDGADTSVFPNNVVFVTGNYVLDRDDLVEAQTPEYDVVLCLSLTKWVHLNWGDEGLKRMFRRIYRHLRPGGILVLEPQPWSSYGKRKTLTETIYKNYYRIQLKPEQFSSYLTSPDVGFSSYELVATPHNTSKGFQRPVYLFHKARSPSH
UniProt Q7Z4W1: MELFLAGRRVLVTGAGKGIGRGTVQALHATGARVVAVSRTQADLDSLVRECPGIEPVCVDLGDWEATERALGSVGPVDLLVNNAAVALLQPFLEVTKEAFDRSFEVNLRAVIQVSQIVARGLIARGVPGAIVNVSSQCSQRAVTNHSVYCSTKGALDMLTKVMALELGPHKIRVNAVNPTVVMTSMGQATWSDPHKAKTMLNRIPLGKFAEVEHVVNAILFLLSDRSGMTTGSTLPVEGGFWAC
UniProt Q7RTP6, whole entry: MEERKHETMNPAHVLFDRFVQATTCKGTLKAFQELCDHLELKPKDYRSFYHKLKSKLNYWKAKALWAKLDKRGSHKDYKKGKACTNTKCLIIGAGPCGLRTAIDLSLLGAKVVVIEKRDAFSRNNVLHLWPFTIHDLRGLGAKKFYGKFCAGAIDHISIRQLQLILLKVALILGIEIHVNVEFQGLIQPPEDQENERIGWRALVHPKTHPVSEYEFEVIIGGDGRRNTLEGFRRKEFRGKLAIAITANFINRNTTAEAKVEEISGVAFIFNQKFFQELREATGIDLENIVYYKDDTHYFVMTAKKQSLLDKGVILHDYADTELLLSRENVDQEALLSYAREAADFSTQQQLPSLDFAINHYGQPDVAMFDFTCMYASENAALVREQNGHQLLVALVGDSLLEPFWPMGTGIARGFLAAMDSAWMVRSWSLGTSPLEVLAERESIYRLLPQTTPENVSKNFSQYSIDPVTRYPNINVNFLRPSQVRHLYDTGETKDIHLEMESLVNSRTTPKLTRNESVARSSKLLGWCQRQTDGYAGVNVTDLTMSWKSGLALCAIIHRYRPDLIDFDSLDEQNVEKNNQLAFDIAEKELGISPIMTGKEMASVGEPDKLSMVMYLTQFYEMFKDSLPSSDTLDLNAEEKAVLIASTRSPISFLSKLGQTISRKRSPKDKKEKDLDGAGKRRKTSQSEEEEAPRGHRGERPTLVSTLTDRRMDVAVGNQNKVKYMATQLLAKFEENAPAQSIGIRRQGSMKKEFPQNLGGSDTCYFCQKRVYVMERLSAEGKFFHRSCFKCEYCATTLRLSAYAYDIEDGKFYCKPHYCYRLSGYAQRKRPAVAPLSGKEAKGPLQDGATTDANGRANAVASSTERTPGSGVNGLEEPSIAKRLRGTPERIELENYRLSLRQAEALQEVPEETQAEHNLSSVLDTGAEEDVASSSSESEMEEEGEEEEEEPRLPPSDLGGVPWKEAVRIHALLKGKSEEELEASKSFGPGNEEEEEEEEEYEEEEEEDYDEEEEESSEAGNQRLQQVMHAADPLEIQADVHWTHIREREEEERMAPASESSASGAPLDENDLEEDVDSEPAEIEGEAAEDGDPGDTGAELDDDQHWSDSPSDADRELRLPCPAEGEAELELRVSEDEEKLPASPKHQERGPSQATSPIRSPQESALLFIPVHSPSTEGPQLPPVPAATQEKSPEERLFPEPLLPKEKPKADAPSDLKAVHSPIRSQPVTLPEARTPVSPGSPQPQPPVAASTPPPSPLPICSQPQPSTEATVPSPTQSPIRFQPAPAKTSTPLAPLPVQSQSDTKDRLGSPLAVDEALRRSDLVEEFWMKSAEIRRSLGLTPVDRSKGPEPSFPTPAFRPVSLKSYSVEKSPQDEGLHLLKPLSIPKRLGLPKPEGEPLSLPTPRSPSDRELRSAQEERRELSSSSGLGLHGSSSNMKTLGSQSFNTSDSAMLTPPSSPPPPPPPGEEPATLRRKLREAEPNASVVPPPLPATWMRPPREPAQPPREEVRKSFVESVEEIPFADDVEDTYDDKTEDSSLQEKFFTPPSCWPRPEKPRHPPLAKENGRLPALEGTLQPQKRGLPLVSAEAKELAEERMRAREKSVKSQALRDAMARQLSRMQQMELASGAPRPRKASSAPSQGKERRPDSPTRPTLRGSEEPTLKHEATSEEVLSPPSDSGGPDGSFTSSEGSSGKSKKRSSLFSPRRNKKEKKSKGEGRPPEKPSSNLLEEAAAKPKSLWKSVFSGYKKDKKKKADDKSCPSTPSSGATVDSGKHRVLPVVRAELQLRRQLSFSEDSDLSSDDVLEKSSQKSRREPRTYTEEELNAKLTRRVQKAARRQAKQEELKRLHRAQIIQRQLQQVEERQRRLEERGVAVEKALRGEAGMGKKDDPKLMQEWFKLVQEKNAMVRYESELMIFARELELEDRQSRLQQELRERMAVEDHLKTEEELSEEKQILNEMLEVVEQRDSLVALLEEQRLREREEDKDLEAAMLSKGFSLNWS
UniProt Q7Z7E8: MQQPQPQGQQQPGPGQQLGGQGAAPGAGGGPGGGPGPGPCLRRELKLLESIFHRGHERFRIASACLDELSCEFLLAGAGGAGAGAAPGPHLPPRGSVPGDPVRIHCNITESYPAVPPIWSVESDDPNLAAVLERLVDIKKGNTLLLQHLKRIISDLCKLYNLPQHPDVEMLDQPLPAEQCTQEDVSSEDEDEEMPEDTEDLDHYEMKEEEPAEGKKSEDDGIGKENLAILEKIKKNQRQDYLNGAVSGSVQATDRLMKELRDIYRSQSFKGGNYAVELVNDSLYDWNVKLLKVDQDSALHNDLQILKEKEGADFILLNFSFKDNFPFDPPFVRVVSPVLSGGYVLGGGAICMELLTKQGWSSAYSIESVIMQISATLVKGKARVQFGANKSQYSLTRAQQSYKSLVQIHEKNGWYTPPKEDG
UniProt Q7Z6I8: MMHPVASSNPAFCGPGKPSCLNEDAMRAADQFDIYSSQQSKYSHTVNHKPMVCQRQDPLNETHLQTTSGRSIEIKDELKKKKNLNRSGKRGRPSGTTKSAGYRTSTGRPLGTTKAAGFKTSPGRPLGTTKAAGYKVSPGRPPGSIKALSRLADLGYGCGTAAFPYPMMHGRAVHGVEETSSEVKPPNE
UniProt Q7L5Y9: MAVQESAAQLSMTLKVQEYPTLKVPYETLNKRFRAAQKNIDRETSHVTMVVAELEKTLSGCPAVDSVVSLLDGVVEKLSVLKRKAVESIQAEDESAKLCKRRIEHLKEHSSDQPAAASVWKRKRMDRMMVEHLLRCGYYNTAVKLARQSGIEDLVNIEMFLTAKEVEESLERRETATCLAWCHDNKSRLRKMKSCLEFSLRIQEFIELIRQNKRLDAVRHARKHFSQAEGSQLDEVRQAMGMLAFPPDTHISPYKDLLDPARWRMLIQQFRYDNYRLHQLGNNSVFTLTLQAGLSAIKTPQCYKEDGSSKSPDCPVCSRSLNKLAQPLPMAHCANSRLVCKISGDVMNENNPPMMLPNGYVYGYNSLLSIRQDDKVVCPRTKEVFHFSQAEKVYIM

The list shows a part of the results. Single values of this set are uncertain.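 Tm was set to 64 °C where no melting was found, and many curves are irregular.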

Compound in the assay: CCc1cnccc1C(=O)Nc1cc2c(cc1F)NC(=O)CC2
Kind of assay: melting temperature shift (DMSO Tm minus MBE1-treated Tm) in cellular thermal proteome profiling; higher = less thermal stabilization by MBE1 (negative = stabilized by MBE1). The settings on record: A375.

As to PHLDB1 (UniProt Q86UU1), the melting temperature shift runs as follows: (MBE1 concentration: 100 nM) 0.293 °C; (MBE1 concentration: 1 uM) 0.0244 °C.
Take SND1 (UniProt Q7KZF4): the melting temperature shift is -0.57 °C (MBE1 concentration: 100 nM) and -0.54 °C (MBE1 concentration: 1 uM).
For NUP54 (UniProt Q7Z3B4) the same measures were 0.971 °C and 0.415 °C.
CYP20A1 (UniProt Q6UW02): the melting temperature shift is -1.16 °C (MBE1 concentration: 100 nM) and 1.17 °C (MBE1 concentration: 1 uM).
In the case of UniProt Q6ZNE5, the melting temperature shift was -0.36 °C (MBE1 concentration: 100 nM) and 0.644 °C (MBE1 concentration: 1 uM).
Taken in the same sequence, the figures for GOLGA7 (UniProt Q7Z5G4) were -3.96 °C and -4.93 °C.
Consider UniProt Q86V85, for which the melting temperature shift reads like this: (MBE1 concentration: 100 nM) 0.795 °C; (MBE1 concentration: 1 uM) 0.534 °C.
With CDC37L1 (UniProt Q7L3B6), the melting temperature shift (MBE1 concentration: 100 nM) was 0.202 °C and the melting temperature shift (MBE1 concentration: 1 uM) was determined as 0.0916 °C.
PRUNE (UniProt Q86TP1): the melting temperature shift (MBE1 concentration: 100 nM) was 1.33 °C and the melting temperature shift (MBE1 concentration: 1 uM) was 0.409 °C.
Taken in the same sequence, the figures for UniProt Q86U86 were -0.173 °C and -0.5 °C.
Taken in the same sequence, the figures for UniProt Q7Z4F1 were -1.54 °C and -0.47 °C.
Consider TRMT1L (UniProt Q7Z2T5), for which the melting temperature shift runs as follows: (MBE1 concentration: 100 nM) 0.727 °C; (MBE1 concentration: 1 uM) 0.855 °C.
For LDB1 (UniProt Q86U70) the same measures were -2.49 °C and -0.898 °C.
For HAUS6 (UniProt Q7Z4H7), the melting temperature shift runs as follows: (MBE1 concentration: 100 nM) -0.733 °C; (MBE1 concentration: 1 uM) -0.467 °C.
Taken in the same sequence, the figures for EPM2AIP1 (UniProt Q7L775) were 0.342 °C and 0.336 °C.
Taken in the same sequence, the figures for MON2 (UniProt Q7Z3U7) were 0.055 °C and -0.421 °C.
As to DDX46 (UniProt Q7L014), the melting temperature shift was -0.739 °C (MBE1 concentration: 100 nM) and -0.64 °C (MBE1 concentration: 1 uM).
As to UniProt Q6UWZ7, the melting temperature shift (MBE1 concentration: 100 nM) was -3.92 °C and the melting temperature shift (MBE1 concentration: 1 uM) was 0.543 °C.
Taken in the same sequence, the figures for MEPCE (UniProt Q7L2J0) were -0.706 °C and -0.212 °C.
Take CRTC1 (UniProt Q6UUV9): the melting temperature shift is -0.577 °C (MBE1 concentration: 100 nM) and 1.37 °C (MBE1 concentration: 1 uM).
For TSEN54 (UniProt Q7Z6J9), the melting temperature shift is 0.256 °C (MBE1 concentration: 100 nM) and -1.05 °C (MBE1 concentration: 1 uM).
Taken in the same sequence, the figures for UniProt Q6PCT2 were 0.659 °C and -0.403 °C.
For VPS13C (UniProt Q709C8), the melting temperature shift was -1.12 °C (MBE1 concentration: 100 nM) and 0.22 °C (MBE1 concentration: 1 uM).
As to UniProt Q6ZRS2, the melting temperature shift by setting is: (MBE1 concentration: 100 nM) -0.871 °C; (MBE1 concentration: 1 uM) -0.843 °C.
For DCXR (UniProt Q7Z4W1) the same measures were -0.171 °C and 0.666 °C.
As to TMED4 (UniProt Q7Z7H5), the melting temperature shift is -0.8 °C (MBE1 concentration: 100 nM) and -1.36 °C (MBE1 concentration: 1 uM).
MICAL3 (UniProt Q7RTP6): the melting temperature shift by setting is: (MBE1 concentration: 100 nM) 0.324 °C; (MBE1 concentration: 1 uM) 0.11 °C.
For GPRIN1 (UniProt Q7Z2K8) the same measures were -1.92 °C and -0.885 °C.
Taken in the same sequence, the figures for RANBP10 (UniProt Q6VN20) were -0.256 °C and -0.0794 °C.
For MRPL55 (UniProt Q7Z7F7), the melting temperature shift is -0.55 °C (MBE1 concentration: 100 nM) and -1.28 °C (MBE1 concentration: 1 uM).
For WAPL (UniProt Q7Z5K2) the same measures were -0.621 °C and -0.352 °C.
Regarding ATG9A (UniProt Q7Z3C6), the melting temperature shift reads like this: (MBE1 concentration: 100 nM) -0.299 °C; (MBE1 concentration: 1 uM) 0.116 °C.
As for DPP9 (UniProt Q86TI2), the melting temperature shift was -0.275 °C (MBE1 concentration: 100 nM) and 0.33 °C (MBE1 concentration: 1 uM).
Take DYM (UniProt Q7RTS9): the melting temperature shift reads like this: (MBE1 concentration: 100 nM) 1.43 °C; (MBE1 concentration: 1 uM) 0.379 °C.
Turning to UniProt Q7Z699, the melting temperature shift is, setting by setting: (MBE1 concentration: 100 nM) -0.686 °C; (MBE1 concentration: 1 uM) 1.39 °C.
Take UBE2Q1 (UniProt Q7Z7E8): the melting temperature shift by setting is: (MBE1 concentration: 100 nM) 0.293 °C; (MBE1 concentration: 1 uM) -0.415 °C.
Consider UniProt Q7Z6I8, for which the melting temperature shift (MBE1 concentration: 100 nM) was -3.05 °C and the melting temperature shift (MBE1 concentration: 1 uM) was -3.27 °C.
For UniProt Q6SZW1 the same measures were 0.971 °C and 0.574 °C.
Taken in the same sequence, the figures for NBEAL1 (UniProt Q6ZS30) were -0.0305 °C and 0.531 °C.
For FIGNL1 (UniProt Q6PIW4) the same measures were 0.141 °C and -0.231 °C.
Regarding MAEA (UniProt Q7L5Y9), the melting temperature shift (MBE1 concentration: 100 nM) is -0.165 °C and the melting temperature shift (MBE1 concentration: 1 uM) stood at 0.336 °C.
Regarding UniProt Q86TI0, the melting temperature shift was 0.618 °C (MBE1 concentration: 100 nM) and -2.78 °C (MBE1 concentration: 1 uM).
Taken in the same sequence, the figures for TRIM65 (UniProt Q6PJ69) were -0.895 °C and -0.527 °C.
Taken in the same sequence, the figures for UniProt Q6SPF0 were -0.288 °C and -0.833 °C.
On to UniProt Q7Z5J4, for which the melting temperature shift by setting is: (MBE1 concentration: 100 nM) 0.855 °C; (MBE1 concentration: 1 uM) 0.885 °C.
Taken in the same sequence, the figures for TAOK1 (UniProt Q7L7X3) were 0.195 °C and 0.458 °C.
For UniProt Q6PL24 the same measures were -0.0376 °C and -0.268 °C.
Taken in the same sequence, the figures for KDELC1 (UniProt Q6UW63) were -1.15 °C and -0.0738 °C.
